One molecule from US20260224701A1 can be followed below.

Test [1] concerns the target T1, human B7-H3 on HeLa tumor cells (human) (UniProt Q5ZPR3).
T1 sequence (looked up): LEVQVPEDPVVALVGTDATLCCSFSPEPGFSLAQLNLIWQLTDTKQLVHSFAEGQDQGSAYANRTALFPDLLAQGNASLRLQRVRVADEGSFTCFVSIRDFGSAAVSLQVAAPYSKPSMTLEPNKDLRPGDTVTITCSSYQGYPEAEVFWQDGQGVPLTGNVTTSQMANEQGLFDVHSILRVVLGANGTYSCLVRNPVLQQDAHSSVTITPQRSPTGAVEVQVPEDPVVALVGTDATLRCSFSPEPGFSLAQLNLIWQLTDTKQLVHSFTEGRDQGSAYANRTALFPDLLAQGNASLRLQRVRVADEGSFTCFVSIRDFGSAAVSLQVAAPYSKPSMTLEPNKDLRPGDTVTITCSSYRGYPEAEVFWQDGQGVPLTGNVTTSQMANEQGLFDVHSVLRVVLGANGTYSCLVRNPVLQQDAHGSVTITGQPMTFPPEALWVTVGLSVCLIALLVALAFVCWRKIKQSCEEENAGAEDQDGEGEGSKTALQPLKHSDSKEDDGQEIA
The test is described as follows: fluorescence microscopy of live HeLa cells, AlexaFluor594-conjugated antibody.

For test [2], the target named is Porcine 4Ig-B7-H3 extracellular domain (porcine). Description: biolayer interferometry (Octet), antibody captured on the probe. On the technique in general: In BLI a coated tip is dipped into the sample, and binding shifts an interference pattern.

Results are given in words; binding and its absence hold for the method and conditions named. Some entries that bind do so weakly or less than the wild type.

B1: MIL33B-H3-hIgG1 (antibody, V domains shown)
VH: QVQLVQSGAEVKKPGASVKVSCKASGYTFTSYVMHWVRQAPGQRLEWMGYINSYSDGTKYNEKFKGRVTITRDTSASTAYMELSSLRSEDTAVYYCARWGGLGNGAMDYWGQGTLVTVSS
VL: EIVLTQSPATLSLSPGERATLSCSVSSSVNYMHWYQQKPGQAPRRLIYDTSKLASGIPARFSGSGSGTDYTLTISSLEPEDFAVYYCQQWTSNPLTFGQGTKLEIK
For the molecule B1, the binding entry in test [1] and in test [2] was “binds” each time.
